Measurements published in PubChem BioAssay AID1259415 (National Center for Advancing Translational Sciences (NCATS), 2018).
“And” between values parts separate entries of the source, which are not always exact repeats. Equal entries are not always repeated. Screen size: about 410,000 compounds; about 18,000 (4.4%) were called active. The inconclusive results got no clear call from the source; some entries with a clear call stand among them for comparison. No stated cut-off is given here; in the data, active means activity change below about -60%; inconclusive means no clear call, values can overlap the other calls; inactive means above about -39%. Some compounds were tested as several samples or in several runs, with calls that do not always agree.

experiment: qHTS Assay for inhibitors of the human cytomegalovirus (HCMV); settings: HFF cells, HCMV-luciferase reporter, 72 h; at 57.5 µM; stronger effect = lower value
In short: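 HFF cells seeded 16 h at 37C, treated with compounds, infected with luciferase-reporter HCMV at MOI 1 PFU/cell; luciferase read at 72 h post infection, normalized to buffer-only and Salinomycin controls.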
On the % scale 0 is the no-effect control and ±100 the full control effect.

| Compound | activity change, negative = inhibition |
| --- | --- |
| CCCn1c(C2CCCN2c2nc(-c3cccc(Br)c3)cs2)nc2ccccc21 (configuration not stated) | inconclusive: -45.8% |
| COc1cccc(N=Nc2c(N)[nH][nH]c2=O)c1 | inactive: 25.3% |
| C(=NN1CCCCCC1)c1cccc2ccccc12 | inactive: -19.8% |
| OC(c1cc(C(F)(F)F)nc2c(C(F)(F)F)cccc12)C1CCCCN1 (configuration not stated) | active: -98.6% |
| Cc1nc2cccnc2n1C1CCN(S(=O)(=O)c2ccc(Cl)cc2)CC1 | inactive: -22.7% |
| CC(C)(CNC(=S)NCCc1ccccc1)CNC(=S)NCCc1ccccc1 | active: -93.4% |
| O=C(Nc1cccc2c1CCCC2)c1cc([N+](=O)[O-])cc([N+](=O)[O-])c1 | inconclusive: -46.8% |
| Cc1[nH]c2ccc(Cl)cc2c1[N+](=O)[O-] | inconclusive: -42.4% |
| Cc1ccc(CN2CCSc3ccc(C(=O)Nc4ccc(Cl)cc4)cc32)cc1 | inactive: 23.7% |
| O=C(NC1CC1)c1ccc2snnc2c1 | inconclusive: -49.7% |
| CC(C)N(C(=O)CSc1nc2ccccc2n1Cc1ccccc1)C(C)C | inconclusive: -40.6% |
| CCOC(=O)c1c(/N=C/C2=C(O)CC(C)(C)CC2=O)sc(C(C)=O)c1C | inactive: -35.7% |
| COc1ccc(C(=O)N2CCC(NC(=O)C(Cc3ccccc3OC)NC(C)=O)CC2)cc1 (configuration not stated) | inactive: 8.8% |
| Cc1ccc(-c2ccc(=O)n(Cc3ccc(F)cc3)n2)cc1 | inactive: -31.3% and active: -63.2% |
| O=C(CCC(=O)OCc1cccc([N+](=O)[O-])c1)Nc1ccccc1Cl | inconclusive: -42.7% |
| COC(=O)c1ccc(N=NN2CCCCC2)cc1 | inconclusive: -56.9% |
| CCN(Cc1ccncc1)C(=O)c1cc(COc2ccc(C)c(C)c2)on1 | active: -74.1% |
| COc1ccccc1N(C)S(=O)(=O)c1ccc(Cl)c(C(=O)Nc2ccncc2)c1 | active: -67.6% |
| CCCCCCCSc1cc(OC)c(CCNC)cc1OC | active: -98.6% |

| Compound | activity change, negative = inhibition |
| --- | --- |
| CC(C)(C)OC(=O)N1CCC(c2c(C(=O)NC3CCN(Cc4ccccc4)CC3)cnn2-c2cccc(F)c2)CC1 | inactive: 0% |
| CN1CCN(CC(C)(C)NS(=O)(=O)c2ccccc2)CC1 | active: -61.3% |
| COc1ccc(/C=N/Nc2nc(NCc3ccco3)nc(Nc3ccc(OC)cc3)n2)cc1 | inconclusive: -58.6% |
| Cc1[nH]c(=O)c(C(=O)/C=C/c2ccccc2)c2c1CCCC2 | active: -104% |
| Cn1c(SCCOc2ccccc2Cl)nnc1-c1cccs1 | inconclusive: -52.8% |
| Cc1ccc(S(=O)(=O)N2CCCCC2)cc1C(=O)NCc1ccc(S(N)(=O)=O)cc1 | inconclusive: -53.4% |
| Cc1ccc(N(CC(=O)N2CCOCC2)S(C)(=O)=O)cc1Cl | inactive: 37.5% |
| COc1cccc(S(=O)(=O)c2nc(C)c3c(n2)CCC3)c1 | active: -80.6% |
| Cc1cc(C)[n+](C2C3CC4CC(C3)CC2C4)o1 (configuration not stated) | inconclusive: -48.5% |
| O=C(CNC(=O)c1sc2ccccc2c1Cl)Nc1ccccc1F | inconclusive: -47.2% |
| O=C1CSC(=Nc2cccc(Cl)c2Cl)N1Cc1cccnc1 | inconclusive: -54% |
| CC(=O)c1ccc(N2C(=O)N(Cc3cccc(C(F)(F)F)c3)c3ccccc3S2(=O)=O)cc1 | inconclusive: -43.1% |
| CC1=C(C(=O)OC2CCCC2)C(c2ccc(F)cc2F)CC(=O)N1 (configuration not stated) | inconclusive: -52.1% |
| NCCCN1CCN(c2ccccc2)CC1 | inconclusive: -48.5% |
| COC(=O)C1=CNC=C(C(=O)OC)C1c1cccc(OC)c1 | inactive: -8.84% |
| COc1ccccc1NS(=O)(=O)c1cccc(NC(=O)Nc2ccccc2)c1 | inconclusive: -52.8% |
| COC(=O)C1=C(c2ccc(F)cc2OCc2ccccc2)C[C@@H]2CC[C@H]1N2C(=O)NCc1ccc(C)cc1 | active: -67.1% |
| O=C(Nc1ccc2c(c1)CN(Cc1ccc(CO)o1)CC2)c1ccc(C(F)(F)F)cc1 | inconclusive: -53.8% |
| O=S(=O)(NC1CCCC1)OCC(Cl)(Cl)Cl | active: -63% |

Molecules above containing an NH in an aromatic ring (3):

| Compound | activity change, negative = inhibition |
| --- | --- |
| COc1cccc(N=Nc2c(N)[nH][nH]c2=O)c1 | inactive: 25.3% |
| Cc1[nH]c2ccc(Cl)cc2c1[N+](=O)[O-] | inconclusive: -42.4% |
| Cc1[nH]c(=O)c(C(=O)/C=C/c2ccccc2)c2c1CCCC2 | active: -104% |

Random excerpt: 2 records from the list.

| Compound | activity change, negative = inhibition |
| --- | --- |
| COC(=O)C1=CNC=C(C(=O)OC)C1c1cccc(OC)c1 | inactive: -8.84% |
| CC1=C(C(=O)OC2CCCC2)C(c2ccc(F)cc2F)CC(=O)N1 (configuration not stated) | inconclusive: -52.1% |

Remaining list, next part:

| Compound | activity change, negative = inhibition |
| --- | --- |
| CC(=O)Nc1ccc(S(=O)(=O)N2CCSC2c2ccco2)cc1 (configuration not stated) | inconclusive: -49.9% |
| Cc1occc(=O)c1OC(=O)Nc1ccc(Cl)c(Cl)c1 | inconclusive: -56% |
| CCc1cccc(CC)c1-n1c(SCC(=O)c2c(N)n(C)c(=O)n(C)c2=O)nnc1-c1cccnc1 | inactive: -7.3% |
| CCOC(=O)N1CCN(C(=S)NC(=O)c2ccc(F)c(F)c2)CC1 | active: -89.1% |
| Cc1ccc(N(C(=O)Cn2nnc(-c3cccs3)n2)C(C(=O)NC2CCCC2)c2ccncc2)cc1 (configuration not stated) | inactive: -30.9% |
| O=C1C2CCCN2C(c2ccccc2F)N1c1ccc(Cl)cc1 (configuration not stated) | active: -63.8% |
| Cc1cccc(NC(=O)Cn2c(=O)n3nc(CCn4nc(C)cc4C)nc3c3ccccc32)c1 | inactive: -32.2% |
| CCN(C(=O)COC(=O)c1c(NC(C)=O)sc(C)c1C)C1CCS(=O)(=O)C1 (configuration not stated) | inconclusive: -45.7% |
| CCc1ccccc1NC(=O)c1ccc(F)c(S(=O)(=O)NC2CCCCCC2)c1 | inactive: 27% |
| Cc1ccc(-n2nc3c(=O)n(CCCC(=O)NCCc4ccccc4C)nc(C)c3c2C)cc1 | inconclusive: -42.2% |
| Cc1ccc(NC(=O)CSc2nc3ccccc3c3nc(CCn4cncc4C)nn23)cc1F | inconclusive: -50.2% |
| O=C(Nc1cccnc1Cl)c1ccc(S(=O)(=O)N2CCCCCC2)cc1 | active: -81.6% |
| Cc1ccc(CNC(=O)C2CCCN(S(=O)(=O)c3ccc(F)cc3)C2)cc1 (configuration not stated) | inconclusive: -48% |
| CCCNC(=O)C1(C)CCCN(Cc2ccccc2Cl)C1 (configuration not stated) | active: -76.8% |
| CCCCCCCCOC(=O)c1cc([N+](=O)[O-])c(Sc2ncnc3nc[nH]c23)c([N+](=O)[O-])c1 | inconclusive: -45.5% |
| O=C(Nc1cnccn1)Nc1ccc(Cl)cc1Cl | inconclusive: -52.5% |
| COc1ccc(C)cc1NCc1nnc2n1CCCCC2 | inactive: 3.61% |
| Cn1c(=O)cc(OCC(=O)N2CCN(c3ccccc3)CC2)c2ccccc21 | inactive: 0.385% |
| COc1ccc(NC(=O)C2CCCN(C(=O)c3cnn(-c4ccc(F)cc4)c3-n3cccc3)C2)cc1 (configuration not stated) | inactive: 28.1% |
